Test results published in patent US20250170263A1.
Results are given in words; binding and its absence hold for the method and conditions named.

Assays:
[1] = target: wt EGFR overexpressed on the surface of A431 (A-431, human epidermoid carcinoma) cells (human) (UniProt P00533); experiment: condition: about 1000 nM (last point, between the 100 and 10000 ticks of the log axis); FACS on A-431 cells, 1 h at 4 C, AlexaFluor 488 secondary antibody, geometric mean fluorescence
[2] = target: wt EGFR overexpressed on the surface of A431 (A-431, human epidermoid carcinoma) cells (human) (UniProt P00533); experiment: FACS on A431 cells

binding [1]: no binding | binding [2]: no binding
B1: MSL109 hIgG (antibody, V domains shown)
VH: EEQVLESGGGLVKPGGSLRLSCAASGFTFSPYSVFWVRQAPGKGLEWVSSINSDSTYKYYADSVKGRFTISRDNAENSIFLQMNSLRAEDTAVYYCARDRSYYAFSSGSLSDYYYGLDVWGQGTTVIVSS
VL: DIVMTQSPLSLSVTPGEPASISCRSSQSLLHTNGYNYLDWYVQKPGQSPQLLIYLASNRASGVPDRFSGSGSGTDFTLKISRVETEDVGVYYCMQALQIPRTFGQGTKVEIKR
